The values that follow come from article PMC5386493.

Amino acid sequences for entries named in this document (tags omitted). A change or cut given only in a name is not applied to a line headed by its entry. Chains listed by the source or under a name are the forms on record and can include a tag or linker. Residues count along the entry.
GAL4BD-CARMA2sh fusion protein (Q9BXL6, residues 1-740): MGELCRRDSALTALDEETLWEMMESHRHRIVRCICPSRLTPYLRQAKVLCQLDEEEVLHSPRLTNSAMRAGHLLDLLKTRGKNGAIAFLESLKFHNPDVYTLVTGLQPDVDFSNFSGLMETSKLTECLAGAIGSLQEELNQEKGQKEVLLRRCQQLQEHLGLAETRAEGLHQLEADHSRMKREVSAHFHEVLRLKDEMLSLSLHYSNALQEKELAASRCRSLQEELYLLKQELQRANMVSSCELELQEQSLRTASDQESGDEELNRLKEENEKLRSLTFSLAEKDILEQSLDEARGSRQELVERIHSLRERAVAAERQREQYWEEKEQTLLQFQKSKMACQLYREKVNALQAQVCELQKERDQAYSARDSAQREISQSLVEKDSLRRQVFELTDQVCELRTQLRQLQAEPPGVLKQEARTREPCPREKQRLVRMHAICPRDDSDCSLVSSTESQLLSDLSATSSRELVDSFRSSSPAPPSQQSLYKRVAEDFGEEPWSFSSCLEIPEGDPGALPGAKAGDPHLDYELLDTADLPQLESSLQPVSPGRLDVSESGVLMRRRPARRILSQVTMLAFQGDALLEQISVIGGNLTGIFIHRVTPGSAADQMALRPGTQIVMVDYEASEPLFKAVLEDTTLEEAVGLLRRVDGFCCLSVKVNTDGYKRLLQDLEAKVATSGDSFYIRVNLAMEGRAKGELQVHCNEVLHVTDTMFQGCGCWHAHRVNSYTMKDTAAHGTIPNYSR
CARMA2shE142G (Q9BXL6-2, form named): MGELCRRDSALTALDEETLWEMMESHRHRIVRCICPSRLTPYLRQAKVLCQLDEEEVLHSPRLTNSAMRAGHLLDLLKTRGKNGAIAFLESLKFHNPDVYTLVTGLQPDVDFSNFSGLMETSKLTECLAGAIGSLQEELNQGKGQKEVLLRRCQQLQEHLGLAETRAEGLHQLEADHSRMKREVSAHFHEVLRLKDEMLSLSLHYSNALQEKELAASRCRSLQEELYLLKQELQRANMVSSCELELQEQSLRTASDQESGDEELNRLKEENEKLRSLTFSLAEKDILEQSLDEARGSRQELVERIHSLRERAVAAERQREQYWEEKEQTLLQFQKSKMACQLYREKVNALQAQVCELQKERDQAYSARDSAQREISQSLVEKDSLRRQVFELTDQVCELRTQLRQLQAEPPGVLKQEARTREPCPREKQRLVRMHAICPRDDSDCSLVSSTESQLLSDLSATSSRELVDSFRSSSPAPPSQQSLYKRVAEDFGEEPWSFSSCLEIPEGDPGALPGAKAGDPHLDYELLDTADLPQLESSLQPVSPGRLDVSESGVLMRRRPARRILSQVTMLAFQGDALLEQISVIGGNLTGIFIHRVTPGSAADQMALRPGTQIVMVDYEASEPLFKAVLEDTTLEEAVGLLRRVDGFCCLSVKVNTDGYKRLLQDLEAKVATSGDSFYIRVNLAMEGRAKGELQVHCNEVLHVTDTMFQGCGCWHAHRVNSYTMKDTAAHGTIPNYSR
CARMA2shΔ458-500 (Q9BXL6-2, form named): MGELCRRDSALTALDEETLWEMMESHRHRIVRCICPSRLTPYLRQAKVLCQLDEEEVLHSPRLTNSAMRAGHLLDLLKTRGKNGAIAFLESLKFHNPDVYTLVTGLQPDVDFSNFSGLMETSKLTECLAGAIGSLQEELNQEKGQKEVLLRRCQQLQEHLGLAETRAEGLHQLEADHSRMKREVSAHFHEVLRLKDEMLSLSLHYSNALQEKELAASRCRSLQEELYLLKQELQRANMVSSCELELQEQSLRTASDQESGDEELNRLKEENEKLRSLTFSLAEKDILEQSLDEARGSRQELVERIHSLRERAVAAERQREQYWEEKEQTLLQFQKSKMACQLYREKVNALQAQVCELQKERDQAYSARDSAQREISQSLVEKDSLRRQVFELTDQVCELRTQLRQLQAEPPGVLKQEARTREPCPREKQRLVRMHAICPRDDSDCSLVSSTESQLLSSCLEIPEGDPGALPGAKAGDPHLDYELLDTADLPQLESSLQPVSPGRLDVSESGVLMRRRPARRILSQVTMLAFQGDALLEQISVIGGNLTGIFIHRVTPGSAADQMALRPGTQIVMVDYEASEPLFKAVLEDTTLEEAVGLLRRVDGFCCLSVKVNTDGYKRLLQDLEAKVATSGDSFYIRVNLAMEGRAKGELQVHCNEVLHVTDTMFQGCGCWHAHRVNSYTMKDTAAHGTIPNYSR
CARMA2shE138A (Q9BXL6-2, form named): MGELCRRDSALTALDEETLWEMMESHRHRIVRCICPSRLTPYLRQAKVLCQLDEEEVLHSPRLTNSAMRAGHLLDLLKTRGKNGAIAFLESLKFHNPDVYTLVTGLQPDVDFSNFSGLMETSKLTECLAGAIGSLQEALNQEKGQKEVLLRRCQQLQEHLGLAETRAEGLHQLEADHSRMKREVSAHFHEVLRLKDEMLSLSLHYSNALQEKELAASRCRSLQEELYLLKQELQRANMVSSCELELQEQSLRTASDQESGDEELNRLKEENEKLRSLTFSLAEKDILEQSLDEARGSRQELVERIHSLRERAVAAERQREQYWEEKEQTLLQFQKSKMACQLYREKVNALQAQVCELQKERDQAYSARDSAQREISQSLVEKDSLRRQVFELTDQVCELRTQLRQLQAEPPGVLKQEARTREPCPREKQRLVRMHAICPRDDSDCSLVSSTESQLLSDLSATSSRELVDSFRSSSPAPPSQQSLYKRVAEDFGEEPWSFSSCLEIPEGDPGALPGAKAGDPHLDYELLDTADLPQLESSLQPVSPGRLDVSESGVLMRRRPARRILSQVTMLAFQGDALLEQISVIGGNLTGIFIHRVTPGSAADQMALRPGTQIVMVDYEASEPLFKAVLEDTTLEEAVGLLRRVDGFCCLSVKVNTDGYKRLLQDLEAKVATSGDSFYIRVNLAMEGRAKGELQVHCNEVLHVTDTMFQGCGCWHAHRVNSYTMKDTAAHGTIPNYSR

Assay [1] has as its target T1, FLAG-tagged full-length ULK2 (UniProt Q8IYT8).
T1 sequence: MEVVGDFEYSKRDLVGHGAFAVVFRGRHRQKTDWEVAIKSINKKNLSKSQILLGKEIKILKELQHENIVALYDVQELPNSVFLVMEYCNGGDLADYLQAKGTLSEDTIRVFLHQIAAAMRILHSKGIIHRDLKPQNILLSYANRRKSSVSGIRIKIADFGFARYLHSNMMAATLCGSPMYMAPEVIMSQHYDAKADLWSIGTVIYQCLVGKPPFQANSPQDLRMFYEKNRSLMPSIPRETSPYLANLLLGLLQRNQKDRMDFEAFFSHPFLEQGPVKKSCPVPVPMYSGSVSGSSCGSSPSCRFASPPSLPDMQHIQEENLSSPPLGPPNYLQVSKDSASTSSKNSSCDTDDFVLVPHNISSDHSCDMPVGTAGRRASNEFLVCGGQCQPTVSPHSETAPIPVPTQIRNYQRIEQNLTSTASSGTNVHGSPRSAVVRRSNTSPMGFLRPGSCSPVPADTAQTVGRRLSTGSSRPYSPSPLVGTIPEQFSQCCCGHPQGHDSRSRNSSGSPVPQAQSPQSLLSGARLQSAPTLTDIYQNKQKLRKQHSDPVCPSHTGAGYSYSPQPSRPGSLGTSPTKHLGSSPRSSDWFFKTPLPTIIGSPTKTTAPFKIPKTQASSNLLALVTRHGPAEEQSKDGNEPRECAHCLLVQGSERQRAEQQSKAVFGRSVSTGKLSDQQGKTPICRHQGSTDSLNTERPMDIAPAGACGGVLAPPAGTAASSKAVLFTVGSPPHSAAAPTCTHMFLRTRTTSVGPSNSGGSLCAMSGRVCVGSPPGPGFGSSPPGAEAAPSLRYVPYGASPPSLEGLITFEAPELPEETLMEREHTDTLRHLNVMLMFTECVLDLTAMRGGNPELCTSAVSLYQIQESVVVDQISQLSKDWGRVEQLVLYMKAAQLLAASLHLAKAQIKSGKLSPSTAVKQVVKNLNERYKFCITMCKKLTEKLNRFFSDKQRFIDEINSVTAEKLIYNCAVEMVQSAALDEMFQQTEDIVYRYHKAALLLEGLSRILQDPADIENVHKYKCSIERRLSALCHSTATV
Nature of the assay: co-IP; HEK293T cotransfected with HA-CARMA2sh and FLAG-ULK2; lysates (150 mM NaCl, 50 mM Tris pH 7.2, 1% NP40, 2 mM EDTA) immunoprecipitated with anti-FLAG, blotted for HA-CARMA2sh; anti-myc as control antibody.

The target in assay [2] is T1, FLAG-tagged full-length ULK2. In words: co-IP; transfection experiments with CARMA2sh mutants and ULK2 (Supplementary Figure 3); cells, tags and precipitating antibody not given.
For assay [3], the target named is HA-tagged CARMA2sh (HaCaT) (human) (UniProt Q9BXL6). In words: co-IP; HaCaT transfected with HA-CARMA2sh; lysates immunoprecipitated with anti-HA, blotted for endogenous ULK2; anti-myc as control antibody.
Assay [4] deals with GAL4BD-CARMA2sh fusion protein (human) (UniProt Q9BXL6). Nature of the assay: two-hybrid; Matchmaker system, yeast AH109; bait fused to the GAL4 DNA-binding domain, ULK2 805-1036 fused to the GAL4 activating domain; growth on selective media, 10 independent transformants.

No constants are given. Whether binding was seen depends on the method and setting. For part of these data: Binding seen in cells or lysates may run through a third protein. Some binding calls cover weakened binding; strength is not graded here. For part of these data: Where a sequence is shown, tags or fusion partners need not be part of it.

Take “HA-tagged CARMA2sh (HEK293T) (from UniProt Q9BXL6-2 1-740)”: the binding result in assay [1] is “binds”.

“CARMA2shE142G (from UniProt Q9BXL6-2 1-740)”: the binding result in assay [2] was “binds”.

“CARMA2shΔ458-500 (from UniProt Q9BXL6-2 1-740)”: the binding entry in assay [2] is “binds”.

For the molecule “CARMA2shE138A (from UniProt Q9BXL6-2 1-740)”, the binding result in assay [2] is reported as “binds”.

B1: endogenous ULK2 (HaCaT) (enzyme, UniProt Q8IYT8 1-1036)
chain: T1 sequence
For B1, in assay [3], the binding entry is “binds”.

B2: ULK2 805-1036 library clone fused to the GAL4 activating domain (domain or fragment, UniProt Q8IYT8 805-1036)
chain: LITFEAPELPEETLMEREHTDTLRHLNVMLMFTECVLDLTAMRGGNPELCTSAVSLYQIQESVVVDQISQLSKDWGRVEQLVLYMKAAQLLAASLHLAKAQIKSGKLSPSTAVKQVVKNLNERYKFCITMCKKLTEKLNRFFSDKQRFIDEINSVTAEKLIYNCAVEMVQSAALDEMFQQTEDIVYRYHKAALLLEGLSRILQDPADIENVHKYKCSIERRLSALCHSTATV
As for B2, the binding entry in assay [4] is “binds”.
